Reference: PubChem BioAssay AID2685 (National Center for Advancing Translational Sciences (NCATS), 2010)
Hit rate of the full screen: of about 320,000 compounds, about 2,100 (0.66%) were called active. Inconclusive results, whose numbers are uncertain, are shown with a selection of clear calls. Calls come from the whole dose curve; as a rule, active = well fitted inhibition curve with a large enough effect in the signal ratio, with a control signal flat (not every such curve was filed as active); inconclusive = small, poorly fitted or top-dose-only effect, or effect the other way, or a change in a side signal; inactive = flat fitted curve, though single readings scatter; the % refers to the signal ratio. A potency beside an inconclusive call is a rough fit, not a confirmed value.

assay: qHTS Assay for Lipid Storage Modulators in Drosophila S3 Cells; settings: BODIPY lipid droplet fluorescence, 18-24 h, cells fed with added oleic acid; lipid storage change, negative = inhibition: at 46.1 µM (top of the series) unless noted
Method in brief: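 Laser-scanning cytometry quantifies lipid droplet accumulation (500–530 nm total intensity; droplet/cell object ratio) in oleic acid-fed (400 uM added) Drosophila S3 cells treated with a concentration series. 20 uM Triacsin C defined 100% inhibition.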
% is set by controls: 0 for no effect and ±100 for the full control effect; potency is the fitted concentration of half-maximal effect.

| Structure (SMILES) | Potency | lipid storage change, negative = inhibition |
| --- | --- | --- |
| Cc1ccc(-c2csc(N3CCN(c4ccc5nc(-c6ccncc6)n(CCN6CCCCC6)c5c4)CC3)n2)cc1 | inconclusive: 6.51 µM [activator, single point] |  |
| Cc1nnn(C23CC4CC(CC(C(=O)NN)(C4)C2)C3)n1 |  | inconclusive: 20.4% |
| Cc1cccnc1NC(=O)C1CCN(S(=O)(=O)c2ccc3ccccc3c2)CC1 |  | inconclusive |
| COc1ccc(C(c2sc3nc(C)nn3c2O)N2CCc3ccccc3C2)cc1 (configuration not stated) |  | inactive |
| Fc1ccc(-c2nnc(-c3ccc(F)cc3)o2)cc1 |  | inconclusive: 16.7% |
| COc1ccc(C)c(S(=O)(=O)Nc2ccc(OCC(=O)O)cc2)c1 |  | inconclusive: 16.5% |
| Nc1ncnc(N2CCc3ccccc32)c1[N+](=O)[O-] |  | inconclusive: 9.13% |
| COc1cccc(OC)c1C(=O)Nc1ccccc1C(=O)N1CCCCCC1 |  | inconclusive: -6.71% |
| CCOC(=O)C1(Cc2cccc(OC)c2)CCCN(C(=O)c2cc(CC(C)C)[nH]n2)C1 (configuration not stated) | inconclusive: 18.4 µM [falling, single point] |  |
| COc1ccccc1CN(C(=O)c1ccco1)C(C(=O)NC1CCCC1)c1ccncc1 (configuration not stated) |  | inconclusive: -22.7% |
| CC(CCN1CCN(CCO)CC1)c1ccccc1 (configuration not stated) |  | inconclusive: 35.2% |
| O=C1Nc2ccc(Br)cc2C1(O)Cc1ccncc1 (configuration not stated) |  | inactive |
| CCC(C(=O)NC1CCCCC1)n1c(SCc2ccc(F)cc2)nc2ccncc21 (configuration not stated) |  | inconclusive: 0.0875% |
| CCc1nc(SCC(=O)c2ccc(Cl)s2)c2oc3ccccc3c2n1 |  | inconclusive: 1.37% |
| COc1ccc(OCC(O)CNC(C)c2ccccc2)cc1 (configuration not stated) |  | inconclusive: 30.8% |
| Cc1ccccc1N1C(=O)N(c2cccc(C(F)(F)F)c2)C2CS(=O)(=O)CC21 (configuration not stated) | inconclusive: 0.731 µM [falling, full curve] |  |
| COc1cc(NC(=O)CN2C(=O)NC(C)(c3ccccc3)C2=O)c(C)cc1[N+](=O)[O-] (configuration not stated) |  | inconclusive: 12.9% |
| Cc1cccc(Nc2nc(NCCCN3CCOCC3)nc(N)c2[N+](=O)[O-])c1 | inconclusive: 0.103 µM [activator, full curve, poor fit] |  |
| O=C(OCCc1cc2ccccc2c(=O)o1)c1cccc(Br)c1 | active: 0.13 µM |  |
| O=C1CC(c2ccccc2)CN1Cc1ccccc1 (configuration not stated) |  | inconclusive: -31.4% |
| COc1cc(/C=C/c2nc3ccccc3c(=O)[nH]2)cc(Cl)c1O | inconclusive: 0.0046 µM [falling, full curve, poor fit] |  |
| FC(F)C(F)(F)c1cc(-c2ccccc2)n[nH]1 |  | inconclusive: 1.53% |
| Cc1ccc(OCc2cc(C(=O)NC(C)Cc3cccc(C)n3)no2)cn1 (configuration not stated) | inconclusive: 6.51 µM [activator, single point] |  |
| CC(C)(C)OC(=O)[C@H](Cc1ccccc1)NC(=O)c1nc[nH]c1C(=O)NC1CCNCC1 |  | inconclusive: 47.8% |
| CC(C)COc1cccc(C(=O)NNC(=O)C2COc3ccccc3O2)c1 (configuration not stated) | inconclusive: 4.11 µM [activator, full curve, poor fit] |  |
| Cc1cc(C)c(S(=O)(=O)N2CCN(C(=O)C3CCCO3)CC2)c(C)c1 (configuration not stated) | inconclusive: 29.1 µM [activator, single point] |  |

Sorted by molecular weight (falling): 6 of the compounds above.

| Structure (SMILES) | Potency | lipid storage change, negative = inhibition |
| --- | --- | --- |
| Cc1ccc(-c2csc(N3CCN(c4ccc5nc(-c6ccncc6)n(CCN6CCCCC6)c5c4)CC3)n2)cc1 | inconclusive: 6.51 µM [activator, single point] |  |
| CC(C)(C)OC(=O)[C@H](Cc1ccccc1)NC(=O)c1nc[nH]c1C(=O)NC1CCNCC1 |  | inconclusive: 47.8% |
| Cc1ccccc1N1C(=O)N(c2cccc(C(F)(F)F)c2)C2CS(=O)(=O)CC21 (configuration not stated) | inconclusive: 0.731 µM [falling, full curve] |  |
| CC(C)COc1cccc(C(=O)NNC(=O)C2COc3ccccc3O2)c1 (configuration not stated) | inconclusive: 4.11 µM [activator, full curve, poor fit] |  |
| COc1ccc(OCC(O)CNC(C)c2ccccc2)cc1 (configuration not stated) |  | inconclusive: 30.8% |
| CC(CCN1CCN(CCO)CC1)c1ccccc1 (configuration not stated) |  | inconclusive: 35.2% |

Continued.

| Structure (SMILES) | Potency | lipid storage change, negative = inhibition |
| --- | --- | --- |
| COc1cccc2cc(CC(=O)c3ccc(C)cc3C)c(=O)oc12 |  | inconclusive: -11.7% |
| CCN(CC)CCn1c2ccccc2c2nc3ccc([N+](=O)[O-])cc3cc21 |  | inactive |
| CCOC(=O)/C(=C\c1ccc([N+](=O)[O-])o1)NC(=O)c1ccccc1 | inconclusive: 0.0041 µM [falling, full curve, poor fit] |  |
| Cn1c(=O)[nH]c(=O)c2c1nc(CN1CCN(c3ccc(F)cc3)CC1)n2CCCc1ccccc1 |  | inconclusive: 34.5% |
| CCOC(=O)Cc1csc(NC(=O)c2c(O)c3ccccc3n(C)c2=O)n1 |  | inconclusive: -39.4% |
| COc1ccc(NC(=O)COC(=O)c2ccc(N3CCCC3=O)cc2)cc1 |  | inconclusive: 37.1% |
| Cc1nc(C(=O)Nc2ccccc2)sc1C1(C)CC(c2cccc([N+](=O)[O-])c2)=NO1 (configuration not stated) | inconclusive: 4.61 µM [activator, full curve] |  |
| O=C(NNC(=O)C1CCCN(S(=O)(=O)c2ccc3ccccc3c2)C1)C1CC1 (configuration not stated) |  | inconclusive: 4.22% |
| Cc1c(NC(=O)c2ccc(N3CCCC3)c([N+](=O)[O-])c2)cccc1-c1nc2ccccc2s1 |  | inconclusive: 39.8% |
| Cc1c(Br)c(C(F)(F)F)nn1CC(=O)NCCCn1ccnc1 |  | inconclusive: 0.0323% |
| O=c1[nH]c(Cc2ccccn2)nc2scc(-c3ccccc3Cl)c12 |  | inconclusive: -41.9% |
| CCn1c(C)nc2cc(S(=O)(=O)C(F)F)ccc21 | inconclusive: 6.51 µM [activator, partial curve, poor fit] |  |
| O=C(CCl)NC(=O)NC12CC3CC(CC(C3)C1)C2 | inconclusive: 2.31 µM [activator, single point] |  |
| CCCn1nc(C(=O)OCC(=O)Nc2cccc(S(N)(=O)=O)c2)c2ccccc2c1=O |  | inconclusive: 41.4% |
| Cc1cccc(NC(=S)N/N=C/c2ccc3c(c2)OCO3)c1 |  | inconclusive: 32% |
| COc1nccnc1NS(=O)(=O)c1ccc(NC(=S)NC(=O)c2ccc(F)cc2)cc1 |  | inconclusive: 18.3% |
| O=S(=O)(NC1CCSc2ccccc21)c1ccccc1 (configuration not stated) | inconclusive: 6.51 µM [falling, single point] |  |
| COc1cc2cc(C(c3nnnn3C3CCCC3)N3CCc4ccccc43)c(=O)[nH]c2cc1OC (configuration not stated) |  | inconclusive: 221% |
| CCC(C)N(C)C1CCN(C(=S)Nc2cccc(OC)c2)CC1 (configuration not stated) |  | inconclusive: 7.1% |
| COc1cc(C(=O)NN(CCC#N)C2=NS(=O)(=O)c3ccccc32)cc(OC)c1OC |  | inconclusive: 10.6% |
| Cc1ccccc1-n1nc(-c2cccnc2)cc1C(=O)N/N=C/c1ccncc1 | inconclusive: 29.1 µM [rising, single point] |  |
| CC(C)c1cc(=O)oc2c3c4c(cc12)CCCN4CCC3 |  | inconclusive: -43.9% |
| COc1ccc(NC(=O)COC(=O)CCNS(=O)(=O)c2ccccc2)cc1OC | inconclusive: 2.91 µM [falling, single point] |  |
| CCN(C(=O)c1cc(Cl)ccc1OC)c1ccccc1 |  | inconclusive: -4.07% |
| O=C(c1cc(Br)c(Br)s1)N1CCN(c2ccccn2)CC1 |  | inconclusive: 7.31% |
| CCOc1ccc(CCNC(=O)C2CCN(c3ccc(N4CCOCC4)nn3)CC2)cc1OCC |  | inconclusive: 43.9% [at 0.0737 µM] |

| Structure (SMILES) | Potency | lipid storage change, negative = inhibition |
| --- | --- | --- |
| CC(NC(=O)/C(C#N)=C/c1cn(-c2ccccc2)nc1-c1ccc(F)cc1)c1ccccc1 (configuration not stated) |  | inconclusive: 18.4% |
| Cc1ccc(OCC(=O)NCCNC(=O)c2ccncc2)cc1 |  | inconclusive: 29.6% |
| COc1cccc(/C=C/C(=O)Nc2ccc3[nH]c(=O)[nH]c3c2)c1 |  | inconclusive: 5.72% |
| O=C(NCc1ccccn1)c1cc2cc(Br)ccc2oc1=O | inconclusive: 29.1 µM [falling, single point] |  |
| COc1ccc(CN2C(=O)c3ccccc3C2C(=O)NCC2CCCO2)c(OC)c1 (configuration not stated) |  | inconclusive: 1.68% |
| CN(Cc1cccs1)C(=O)CSc1nc(N)cc(N)n1 |  | inconclusive: 16% |
| CC(CCc1ccccc1)NC(=O)CSc1nccc(=O)[nH]1 (configuration not stated) |  | inconclusive: -1.15% |
| O=C(Nc1nnc(S(=O)(=O)N2CCCCCC2)s1)c1cccc(Br)c1 |  | inactive |
| CCc1ccc(OCc2nnc(SCC(=O)NCC3CCCO3)n2C)cc1 (configuration not stated) |  | inconclusive: 365% |
| Cc1sc2ncn(CC(=O)N3CCCCC3)c(=O)c2c1S(=O)(=O)N1CCC(C)CC1 |  | inactive |
| CCc1ccc(NC(=O)C(=O)c2ccccc2NC(C)=O)cc1 | inconclusive: 16.4 µM [activator, partial curve] |  |
| Cn1c(C(=O)NCCN2CCOCC2)cc2c(=O)n(C)c3ccccc3c21 |  | inconclusive: 90.1% |
| CC1(C)CC2CC(C)(CN2C(=O)C23CCC(C)(C(=O)C2)C3(C)C)C1 (configuration not stated) | inconclusive: 29.1 µM [falling, single point] |  |
| CCOC(=O)Cn1nc(C)n(-c2ccc(Br)cc2)c1=O |  | inconclusive: 30.1% |
| C=CCn1c(C(c2ccccc2)c2ccccc2)n[nH]c1=S |  | inconclusive: 11.7% |
| CC(C)=CC(=O)N1CCCC(N2CCN(c3ccc(F)cc3)CC2)C1 (configuration not stated) |  | inconclusive: 49.6% |
| Cn1c(=NC(=O)c2ccccc2[N+](=O)[O-])sc2cccc(F)c21 | inconclusive: 2.31 µM [rising, single point] |  |
| O=C(Nc1cccc(S(=O)(=O)N2CCCCCC2)c1)c1ccc(=O)[nH]c1 | inconclusive: 0.0052 µM [cytotoxic, full curve, poor fit] |  |
| S=C(NCc1ccc(Cl)cc1Cl)NC1CCCCC1 |  | inconclusive: -7.64% |
| O=c1oc(-c2ccccc2)nc2sc3c(c12)CCC3 |  | inconclusive: 10% |
| COc1ccc(OC)c(S(=O)(=O)N2CCN(c3ccccc3)CC2)c1 |  | inconclusive: 20.8% |
| O=C(CCN1C(=O)c2ccccc2C1=O)N(CCO)Cc1ccccc1 |  | inconclusive: -22% |
| CN1CCC(N(C)C(=O)c2ccccc2F)CC1 | inconclusive: 1.64 µM [falling, partial curve, poor fit] |  |
| CCCCC[n+]1ccn(-c2nc3ccccc3nc2[N-]S(=O)(=O)c2ccccc2)c1 | inconclusive: 2.06 µM [activator, single point] |  |
| Cc1ccc2[nH]c(C(=O)O)c(-c3ccccc3)c2c1 | inconclusive: 8.2 µM [falling, partial curve, poor fit] |  |
